# Among all 400,000 compounds or so, about 5,500 (1.4%) were called active. The shares of active, inactive and inconclusive entries below differ from those in the screen. Calls come from the whole dose curve; as a rule, active = well fitted cell-killing curve with a large enough effect; inconclusive = small, poorly fitted or top-dose-only effect, or effect the other way; inactive = flat fitted curve, though single readings scatter. Potencies beside an inconclusive call are fits to weak or partial responses and may not hold up.
# Assay: qHTS assay for MDR1-selective chemotherapeutics: Primary screen using the parental adenocarcinoma cell KB-3-1; note: nearly all actives have a fitted effect of over 60% in size
# Details: KB-3-1 viability, CellTiter-Glo ATP luminescence, 72 h; activity change, negative = cytotoxic: at 46.1 µM (top of the series)
# Summary of the method: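 Screening of KB-3-1 cells (DMEM, 10% FBS, phenol-red free) ran from lowest to highest compound concentration; after 72 h at 37 °C viability was read luminescently and curves fitted.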
# % is set by controls: 0 for no effect and ±100 for the full control effect; potency is the fitted concentration of half-maximal effect.
SMILES,Potency,"activity change, negative = cytotoxic"
Fc1ccc(F)c(CNc2ncnc3cc(Cl)ccc23)c1,"inconclusive: 5.8 µM [cytotoxic, partial curve]",–
Cc1cc(Cl)ccc1NC(=S)NCc1cccs1,–,inactive: -11.5%
CC1CC(C)CN(C(=O)COC(=O)CNC(=O)C23CC4CC(CC(C4)C2)C3)C1 (centres undefined),"inconclusive: 29.1 µM [rising, single point]",–
CCC1(c2ccc(Cl)cc2)NC(=O)N(CC(=O)NC2CCCC(C)C2C)C1=O (centres undefined),–,inactive: -21.3%
Cc1ccc(OCCNC(=O)c2cc(C(=O)NCCOc3ccc(C)cc3)cc([N+](=O)[O-])c2)cc1,"inconclusive: 32.6 µM [cytotoxic, single point]",–
O=C(Oc1ccc2ccccc2c1Cl)N1CCCCCC1,"inconclusive: 5.17 µM [cytotoxic, full curve]",–
Cc1ccc(-c2[nH]c3cc(C(N)=O)ccc3c(=O)c2O)cc1,"inconclusive: 29.1 µM [cytotoxic, single point]",–
Cc1ccsc1C(=O)N1CCC1(C)C(=O)Nc1cccc(C#N)c1 (centres undefined),–,inactive: 0%
OC(CON=C1c2ccccc2-c2ccccc21)CN1CCNCC1 (centres undefined),"inconclusive: 18.4 µM [cytotoxic, single point]",–
Cc1ccc(O)c(C(=O)CC(=O)c2ccc(Cl)cc2)c1,"inconclusive: 29.1 µM [cytotoxic, single point]",–
COc1cc(C(=O)Nc2ccc(C)cc2)c2ccccc2n1,active: 0.82 µM,–
C[n+]1ccccc1COc1ccc(C(C)(C)C)cc1,active: 23.1 µM,–
CCCCn1cc(S(=O)(=O)c2ccc(C)c(C)c2)c(=O)c2cc(F)c(N(CC)CC)cc21,"inconclusive: 29.1 µM [cytotoxic, single point]",–
Cc1c(Cl)ccc2c(C(=O)Nc3cc(C(C)(C)C)on3)cc(-c3ccccn3)nc12,"inconclusive: 16.4 µM [cytotoxic, single point]",–
CC(=O)OC(C(=O)Nc1ccccc1)C(C)S(=O)(=O)c1ccccc1 (centres undefined),"inconclusive: 29.1 µM [cytotoxic, partial curve, poor fit]",–
CC1C(=O)N2CCCc3cc(NC(=O)C(=O)NCCCc4ccccc4)cc1c32 (centres undefined),"inconclusive: 32.6 µM [rising, single point]",–
COc1cc([N+](=O)[O-])cc(/C=N/NC(=O)C(C)Nc2ccccc2C)c1O (centres undefined),"inconclusive: 18.4 µM [cytotoxic, partial curve, poor fit]",–
COc1cccc(Oc2ccc(C(F)(F)F)cc2NC(=O)CN2C(=O)NC3(CCCC3)C2=O)c1,"inconclusive: 20.6 µM [cytotoxic, single point]",–
Oc1ccc(C[C@@H]2CNCCN2CCCCC2CCCCC2)cc1,"inconclusive: 23.1 µM [cytotoxic, partial curve, poor fit]",–

# Whole records from above. Order of values: Potency | activity change, negative = cytotoxic
# COc1cc(C(=O)Nc2ccc(C)cc2)c2ccccc2n1 reads active: 0.82 µM | –
# CCCCn1cc(S(=O)(=O)c2ccc(C)c(C)c2)c(=O)c2cc(F)c(N(CC)CC)cc21 reads inconclusive: 29.1 µM [cytotoxic, single point] | –

# Reference: PubChem BioAssay AID1347075 (National Center for Advancing Translational Sciences (NCATS), 2019)
